# Laboratory results as given in patent US20210337791A1, “Methods For Killing Insects Such As Drosophila species” (The United States of America, as represented by the …, priority 2020, published 2021).
# Some entries share one result that the patent states for a list of compounds.
# Tested on: Drosophila suzukii
# Assay: Feeding test of D. suzukii adults with tyramine or M-tyramine sucrose solutions (fly mortality)
# Assay type: in vivo
# Conditions: 2% compound in 0.5 M sucrose, 7 days
# Description: Flies and sugars: Drosophila suzukii used in these experiments were from a colony maintained at 22±5° C. under a photoperiod of L:D 16:8 h and a relative humidity of 60±5% RH at the Horticultural Crops Research Unit, USDA ARS in Corvallis, Oreg. Wildtype flies collected from infested fruits in Corvallis, Oreg., were used to start the colony. Standard rearing methods and diet are described by Woltz et al. (Journal of Applied Entomology, 139: 759-770 (2015)). Newly emerged adult males and females were collected daily and maintained in cages with water and diet until they were specific ages for experimentation.
# The chemical components were tyramine (98%, Sigma-Aldrich), N-methyl-tyramine (shortened name=M-tyramine), 95%, Combi-Blocks, Inc.), and sucrose (>99%, Fisher Scientific, Hampton, N.H.).
# The effect of tyramine and M-tyramine formulations on fly mortality-I: Ten 5-day old flies (5 males and 5 females) were introduced into a plastic vial and given a tube (1.5 ml) containing different water-based solutions (FIG. 1). For the first experiment various pairs were tested (FIG. 2A): (a) Sucrose 0.5 M only; (b) Tyramine 0.1%+Sucrose 0.5 M (0.1% Tyramine); (c) Tyramine 1%+Sucrose 0.5 M (1% Tyramine); (d) M-Tyramine 0.1%+Sucrose 0.5 M (0.1% M-Tyramine); and (e) M-Tyramine 1%+Sucrose 0.5 M (1% M-Tyramine). […]
compound,measurement,value
NCCc1ccc(O)cc1 [tyramine],mortality,over 85%
